# Measurements as given in paper PMC9958131 (Nature Communications, 2023).
# Test system: PAD2 / PAD4
# Assay: Citrullination site mapping of fibrinogen and vimentin by trypsin digestion, protein-level sheet (native, PAD2- and PAD4-citrullinated samples searched together)
# Format: biochemical, Homo sapiens
# Conditions: deamidated Arg (= citrullinated) positions found by Sequest HT after trypsin digestion; one list for all six samples (native, PAD2-, PAD4-citrullinated fibrinogen and vimentin); co-purified/contaminant proteins
# From the text: Description: Raw mass spectrometry data for proteolytic mapping of fibrinogen, vimentin, and hnRNP A2/B1 by cathepsins B, S, and H (sheets 1-6); citrullination site mapping of fibrinogen and vimentin by trypsin digestion (sheets 7-8); and the natural antigen processing assay with native, PAD2-citrullinated (PAD2-cit), and PAD4-citrullinated (PAD4-cit) fibrinogen (sheets 9-11).
sequence,measurement,value
MPVARSWVCRKTYVTPRRPFEKSRLDQELKLIGEYGLRNKREVWRVKFTLAKIRKAARELLTLDEKDPRRLFEGGSL [Peptide F2Z3C0],Modifications,Deamidated [R38]
